No constants are given. Whether binding was seen depends on the method and setting. In cells and extracts the contact can be indirect.
target: RGA4 (rice) (UniProt F7J0M4); experiment: co-IP; RGA5 HMA domains with AVR-PikD and RGA4 in N. benthamiana, RGA4 tested with or without AVR-PikD (Supplementary Fig. 2)

Amino acid sequences for entries named in this document (tags omitted). A change or cut given only in a name is not applied to a line headed by its entry. Chains listed by the source or under a name are the forms on record and can include a tag or linker.
UniProt F7J0M4: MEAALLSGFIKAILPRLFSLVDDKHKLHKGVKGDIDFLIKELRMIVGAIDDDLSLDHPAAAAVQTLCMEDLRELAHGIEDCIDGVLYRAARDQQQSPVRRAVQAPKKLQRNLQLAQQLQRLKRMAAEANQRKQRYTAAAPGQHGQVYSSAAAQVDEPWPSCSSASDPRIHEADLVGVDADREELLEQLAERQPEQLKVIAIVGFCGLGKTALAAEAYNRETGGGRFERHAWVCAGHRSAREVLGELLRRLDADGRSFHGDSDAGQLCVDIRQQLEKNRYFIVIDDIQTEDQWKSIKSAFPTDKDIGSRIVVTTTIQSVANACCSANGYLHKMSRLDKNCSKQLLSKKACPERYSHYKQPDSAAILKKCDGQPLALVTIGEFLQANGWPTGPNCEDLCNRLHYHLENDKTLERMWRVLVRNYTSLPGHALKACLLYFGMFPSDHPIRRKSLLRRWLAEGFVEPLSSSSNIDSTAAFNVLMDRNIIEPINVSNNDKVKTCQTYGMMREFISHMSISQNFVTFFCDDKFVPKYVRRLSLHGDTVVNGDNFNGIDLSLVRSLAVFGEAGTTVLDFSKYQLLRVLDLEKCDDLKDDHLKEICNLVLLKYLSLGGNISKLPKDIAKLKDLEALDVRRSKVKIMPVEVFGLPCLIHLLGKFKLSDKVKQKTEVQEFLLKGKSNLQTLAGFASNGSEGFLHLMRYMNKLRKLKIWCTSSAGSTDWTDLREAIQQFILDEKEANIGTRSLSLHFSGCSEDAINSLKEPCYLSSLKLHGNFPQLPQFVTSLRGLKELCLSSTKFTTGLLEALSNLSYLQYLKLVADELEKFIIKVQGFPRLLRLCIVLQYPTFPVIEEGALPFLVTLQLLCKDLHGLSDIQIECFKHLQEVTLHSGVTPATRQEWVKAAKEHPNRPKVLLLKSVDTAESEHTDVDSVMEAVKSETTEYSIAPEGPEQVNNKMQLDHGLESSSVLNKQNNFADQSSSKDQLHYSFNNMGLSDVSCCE
RGA5-HMA3 (expressed in N. benthamiana) (F7J0N2, form named): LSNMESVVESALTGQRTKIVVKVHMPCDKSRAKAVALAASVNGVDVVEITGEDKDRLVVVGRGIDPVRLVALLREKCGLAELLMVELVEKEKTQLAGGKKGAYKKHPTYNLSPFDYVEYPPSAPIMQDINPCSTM
RGA5-HMA4 (expressed in N. benthamiana) (F7J0N2, form named): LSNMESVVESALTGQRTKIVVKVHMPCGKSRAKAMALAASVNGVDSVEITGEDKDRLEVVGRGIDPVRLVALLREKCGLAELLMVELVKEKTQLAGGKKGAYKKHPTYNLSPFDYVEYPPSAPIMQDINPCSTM
RGA5-HMA5 (expressed in N. benthamiana) (F7J0N2, form named): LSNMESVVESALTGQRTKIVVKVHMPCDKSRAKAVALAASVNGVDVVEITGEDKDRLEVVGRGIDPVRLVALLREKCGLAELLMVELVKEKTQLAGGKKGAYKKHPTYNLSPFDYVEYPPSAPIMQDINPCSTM

Row | Substance | binding
1 | RGA5-HMA3 (expressed in N. benthamiana) (from UniProt F7J0N2 982-1116) (domain or fragment) | no binding
2 | RGA5-HMA4 (expressed in N. benthamiana) (from UniProt F7J0N2 982-1116) (domain or fragment) | no binding
3 | RGA5-HMA5 (expressed in N. benthamiana) (from UniProt F7J0N2 982-1116) (domain or fragment) | no binding

From paper PMC10847126
